The values below come from the supplement of paper PMC12823440, “Inhibitors supercharge kinase turnover through native proteolytic circuits” (Nature, 2025).

Chains of the proteins cited; added tags and fusions are not shown. Lines headed by an entry give the natural chain unless they say otherwise; changes in a name come on top.
UniProt Q12851: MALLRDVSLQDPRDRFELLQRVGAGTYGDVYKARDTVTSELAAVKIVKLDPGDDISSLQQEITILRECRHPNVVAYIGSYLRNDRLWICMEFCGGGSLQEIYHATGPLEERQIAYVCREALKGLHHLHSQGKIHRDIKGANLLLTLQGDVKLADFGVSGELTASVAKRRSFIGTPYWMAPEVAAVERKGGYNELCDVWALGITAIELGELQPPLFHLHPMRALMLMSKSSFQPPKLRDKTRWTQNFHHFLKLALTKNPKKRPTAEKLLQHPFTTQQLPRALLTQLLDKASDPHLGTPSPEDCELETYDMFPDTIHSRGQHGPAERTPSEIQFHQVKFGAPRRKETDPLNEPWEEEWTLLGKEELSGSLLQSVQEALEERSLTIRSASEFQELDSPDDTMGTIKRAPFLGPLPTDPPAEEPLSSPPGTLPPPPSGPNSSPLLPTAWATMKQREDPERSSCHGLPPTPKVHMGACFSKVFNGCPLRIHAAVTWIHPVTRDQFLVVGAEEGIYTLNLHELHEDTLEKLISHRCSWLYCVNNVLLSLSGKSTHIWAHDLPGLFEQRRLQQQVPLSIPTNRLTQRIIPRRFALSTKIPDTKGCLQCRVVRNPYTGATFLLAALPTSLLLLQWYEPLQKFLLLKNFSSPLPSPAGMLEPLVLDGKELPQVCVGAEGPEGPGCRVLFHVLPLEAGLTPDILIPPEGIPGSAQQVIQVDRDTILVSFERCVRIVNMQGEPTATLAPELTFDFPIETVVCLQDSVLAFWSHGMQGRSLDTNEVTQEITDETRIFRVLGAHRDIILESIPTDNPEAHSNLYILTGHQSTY
UniProt P28482, whole entry: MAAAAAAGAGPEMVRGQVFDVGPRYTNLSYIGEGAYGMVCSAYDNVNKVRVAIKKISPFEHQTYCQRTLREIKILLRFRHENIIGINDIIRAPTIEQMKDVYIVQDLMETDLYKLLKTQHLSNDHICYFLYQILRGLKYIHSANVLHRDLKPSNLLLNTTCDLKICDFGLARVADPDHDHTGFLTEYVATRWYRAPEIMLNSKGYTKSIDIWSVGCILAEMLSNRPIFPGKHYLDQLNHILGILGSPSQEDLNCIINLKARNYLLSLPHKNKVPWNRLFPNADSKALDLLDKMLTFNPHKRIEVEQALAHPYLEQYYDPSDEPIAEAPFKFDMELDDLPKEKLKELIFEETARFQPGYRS

Structures can show the parent of a compound that is named as a salt. The list shows a part of the results. Hit calls seldom repeat between salt and free forms of one compound.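 Kinases, fused to nanoluciferase, were expressed in K562 cells; luminescence was measured every 4 h from 2 to 18 h as percent of control (DMSO = 100%, positive control = 0%). A time point is decreased if signal falls significantly (2 sigma). Hits were called by the authors by a rule that is not shown; the count of time points alone does not decide it.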

The first assay concerns the target MAP4K2 (UniProt Q12851). The assay can be described thus: number of time points (of 5) at which kinase-Nluc abundance scored as decreased, DMSO-normalised (count); higher = more persistent destabilization. The conditions noted are these: K562; 2-18 h.
Regarding `O=C(ON=C1c2ccccc2-c2nc3ccccc3nc21)c1ccco1` (2.5 µM), the “number of time points” value was 0.

For the compound `COc1ccc(S(=O)(=O)Nc2cc(-c3c(O)ccc4ccccc34)c(O)c3ccccc23)cc1` (10 µM), the “number of time points” value is 0.

As for `Cc1cccc(COc2cccc(/C=C3\C(=O)NN(c4ccccc4)C3=O)c2)c1` (10 µM), the “number of time points” value came to 0.

As for `CC(C)Oc1ccc(F)c(-c2cnc(N)c(C(=O)Nc3cnccc3N3CCC[C@@H](C(=O)O)C3)n2)c1` (2 µM), the “number of time points” value turned out to be 0.

Take `COc1cc(F)ccc1-c1ncnc(Nc2cccc(C[S@](C)(=N)=O)c2)n1` [Atuveciclib] (2.5 µM): the “number of time points” value came to 0.

Take `CC(C)n1ncnc1-c1cn2c(n1)-c1ccc(O[C@@H](C)C(N)=O)cc1OCC2` (10 µM): the “number of time points” value was 0.

Turning to `Cn1c(CNc2cccc(C(=O)NCc3ccccc3C(F)(F)F)c2)nnc1-c1ccncc1` (10 µM), the “number of time points” value was determined as 0.

As to `O=Nc1c(-c2c(O)[nH]c3cc(Br)ccc23)[nH]c2ccccc12` [GSK 3 Inhibitor IX] (2.5 µM), the “number of time points” value was 0.

`Nc1ncc(C(=O)NC2CN(C(=O)C3CC3)C2)c2ccc(-c3cccc(F)c3)nc12` (2 µM): the “number of time points” value was found to be 0.

For the compound `O=C(Nc1cc(Cl)cc2c1[nH]c1cnccc12)c1cccnc1` (10 µM), the “number of time points” value was found to be 0.

On to `c1ccc(Cn2c(-c3ccc(OC[C@H](C4CCNCC4)n4c(-c5ccccc5)nc5ccccc54)cc3)nc3ccccc32)cc1` [Deltarasin] (2.5 µM), for which the “number of time points” value is 0.

For the compound `COc1cc2ncnc(Nc3cccc(I)c3)c2cc1OC` (2.5 µM), the “number of time points” value was determined as 0.

`Clc1ccc(C(c2ccc(Cl)cc2)[n+]2ccn(CC(OCc3ccc(Cl)cc3Cl)c3ccc(Cl)cc3Cl)c2)cc1` (stereo not given) [Calmidazolium chloride] (2.5 µM): the “number of time points” value was 0.

Regarding `O=C(Nc1cccnc1)c1cc(-c2ccnc(F)c2)ccc1OCc1ccccc1` (10 µM), the “number of time points” value is 0.

For `c1nn(C2CCOCC2)cc1Nc1ncc2nnn(-c3ccc4cn[nH]c4c3)c2n1` (10 µM), the “number of time points” value was found to be 0.

Take `COC(=O)[C@H](CCSC)NC(=O)c1ccc(NC[C@@H](N)CS)cc1-c1ccccc1` [FTI-277 (hydrochloride)] (10 µM): the “number of time points” value was 0.

In the case of `Cc1cc(Nc2cc(N)ncn2)c(=O)n2c1C(=O)NC21CCCCC1` [Tomivosertib] (10 µM), the “number of time points” value was determined as 0.

`CCc1c[nH]c2ncnc(N3CC[C@](N)(CNC(=O)c4ccc(F)cc4F)C3)c12` (10 µM): the “number of time points” value is 0.

`Nc1ncnc2c1nc(Br)n2[C@@H]1O[C@@H]2COP(=O)(O)O[C@H]2[C@H]1O` [8-Bromo-cAMP sodium salt] (10 µM): the “number of time points” value is 0.

As for `CC(C)n1c(=O)n(C)c2cnc3cc(F)c(-c4ccc(OCCCN5CCCCC5)nc4)cc3c21` (10 µM), the “number of time points” value was found to be 0.

Turning to `Cc1ccc(C)c(OCCn2cc(C(=O)O)c3ccccc32)c1` (10 µM), the “number of time points” value amounted to 0.

In the case of `COCCOc1ccc2c(c1)ncn2-c1ccc2cccc(N3CCC(N)CC3)c2n1` (10 µM), the “number of time points” value worked out at 0.

Regarding `CC(C)=CCC/C(C)=C/CC/C(C)=C/C=C/C(C)=C/C(=O)O` [Peretinoin] (10 µM), the “number of time points” value is 0.

With `C=CC(=O)N1CC[C@@H](Oc2nc(Nc3ccc(N4CCC(N5CCN(C)CC5)CC4)cc3)c(C(N)=O)nc2CC)C1` [Naquotinib (mesylate)] (2.5 µM), the “number of time points” value is 0.

In the case of `CC(Sc1nc2c(cnn2-c2cccc(Cl)c2)c(=O)[nH]1)C(N)=O` (stereo not given) (10 µM), the “number of time points” value was 0.

In the case of `Cc1cc(O)c2c(c1)C(=O)c1cccc(O)c1C2=O` [Chrysophanol] (2 µM), the “number of time points” value turned out to be 0.

`O=C1OC(/C=C/c2ccccc2)=NC/1=C\c1cccnc1` (10 µM): the “number of time points” value was determined as 0.

Another assay concerns the target MAPK1 (UniProt P28482). The description is as above. The conditions noted are these: K562; 2-18 h.
Regarding `CN1CCN(c2cc(-c3ccncc3)c(-c3ccc4ccccc4c3)nn2)CC1` (10 µM), the “number of time points” value stood at 0.

In the case of `CC(O)(C#Cc1ccc2c(c1)N(c1nc(N)ncc1Cl)CC2)c1nccs1` (stereo not given) (2.5 µM), the “number of time points” value turned out to be 0.

`COc1ccc(Nc2ncc(C(F)(F)F)c(NC3CC3)n2)cc1OC` (10 µM): the “number of time points” value came to 0.

On to `O=c1cc(N2CCOCC2)oc2c(-c3ccc4c(c3)OCCO4)csc12` (2.5 µM), for which the “number of time points” value turned out to be 0.

Regarding `N[C@@H]1CCCN(c2c(/C=C3\SC(=O)NC3=O)cccc2-c2ccccc2)C1` (10 µM), the “number of time points” value amounted to 0.

Regarding `N#Cc1ccc(-c2cnc3[nH]cc(NC(=O)c4cccnc4)c3c2)cc1` (10 µM), the “number of time points” value was 0.

Consider `COc1ccc(Br)cc1NC(=O)Nc1cccc2c1ccn2Cc1ccnc(N)c1` (2.5 µM), for which the “number of time points” value was found to be 0.

On to `COc1cc(N2CCOCC2)ccc1Nc1ncc(F)c(Nc2ccccc2NS(C)(=O)=O)n1` (10 µM), for which the “number of time points” value was found to be 0.

Turning to `COc1ccc(-c2cc(=O)c3c(OC)cc(OC)c(OC)c3o2)cc1` [6-Demethoxytangeretin] (10 µM), the “number of time points” value amounted to 0.

`COc1cc2c(cc1O)C[C@H]1c3cc(O)c(OC)cc3CC[N@@+]1(C)C2` [Phellodendrine] (10 µM): the “number of time points” value is 0.

As for `CO[C@H]1C[C@@H]2CC[C@@H](C)[C@@](O)(O2)C(=O)C(=O)N2CCCC[C@H]2C(=O)O[C@H]([C@H](C)C[C@@H]2CC[C@@H](OC(=O)C(C)(CO)CO)[C@H](OC)C2)CC(=O)[C@H](C)/C=C(\C)[C@@H](O)[C@@H](OC)C(=O)[C@H](C)C[C@H](C)/C=C/C=C/C=C/1C` [Temsirolimus] (2.5 µM), the “number of time points” value worked out at 0.

On to `O=C(ON=C1c2ccccc2-c2nc3ccccc3nc21)c1ccco1` (2.5 µM), for which the “number of time points” value came to 0.

Turning to `COc1ccc(S(=O)(=O)Nc2cc(-c3c(O)ccc4ccccc34)c(O)c3ccccc23)cc1` (10 µM), the “number of time points” value turned out to be 0.

In the case of `Cc1cccc(COc2cccc(/C=C3\C(=O)NN(c4ccccc4)C3=O)c2)c1` (10 µM), the “number of time points” value is 0.

In the case of `CC(C)Oc1ccc(F)c(-c2cnc(N)c(C(=O)Nc3cnccc3N3CCC[C@@H](C(=O)O)C3)n2)c1` (2 µM), the “number of time points” value worked out at 0.

As for `COc1cc(F)ccc1-c1ncnc(Nc2cccc(C[S@](C)(=N)=O)c2)n1` [Atuveciclib] (2.5 µM), the “number of time points” value came to 0.

Consider `CC(C)n1ncnc1-c1cn2c(n1)-c1ccc(O[C@@H](C)C(N)=O)cc1OCC2` (10 µM), for which the “number of time points” value came to 0.

For the compound `Cn1c(CNc2cccc(C(=O)NCc3ccccc3C(F)(F)F)c2)nnc1-c1ccncc1` (10 µM), the “number of time points” value turned out to be 0.

Turning to `O=Nc1c(-c2c(O)[nH]c3cc(Br)ccc23)[nH]c2ccccc12` [GSK 3 Inhibitor IX] (2.5 µM), the “number of time points” value was determined as 0.

On to `Nc1ncc(C(=O)NC2CN(C(=O)C3CC3)C2)c2ccc(-c3cccc(F)c3)nc12` (2 µM), for which the “number of time points” value is 0.

For the compound `O=C(Nc1cc(Cl)cc2c1[nH]c1cnccc12)c1cccnc1` (10 µM), the “number of time points” value was determined as 0.

Take `c1ccc(Cn2c(-c3ccc(OC[C@H](C4CCNCC4)n4c(-c5ccccc5)nc5ccccc54)cc3)nc3ccccc32)cc1` [Deltarasin] (2.5 µM): the “number of time points” value amounted to 0.

Turning to `COc1cc2ncnc(Nc3cccc(I)c3)c2cc1OC` (2.5 µM), the “number of time points” value amounted to 0.

As for `Clc1ccc(C(c2ccc(Cl)cc2)[n+]2ccn(CC(OCc3ccc(Cl)cc3Cl)c3ccc(Cl)cc3Cl)c2)cc1` (stereo not given) [Calmidazolium chloride] (2.5 µM), the “number of time points” value came to 0.

Consider `O=C(Nc1cccnc1)c1cc(-c2ccnc(F)c2)ccc1OCc1ccccc1` (10 µM), for which the “number of time points” value was determined as 0.

As for `c1nn(C2CCOCC2)cc1Nc1ncc2nnn(-c3ccc4cn[nH]c4c3)c2n1` (10 µM), the “number of time points” value was 0.

Take `COC(=O)[C@H](CCSC)NC(=O)c1ccc(NC[C@@H](N)CS)cc1-c1ccccc1` [FTI-277 (hydrochloride)] (10 µM): the “number of time points” value worked out at 0.

With `Cc1cc(Nc2cc(N)ncn2)c(=O)n2c1C(=O)NC21CCCCC1` [Tomivosertib] (10 µM), the “number of time points” value worked out at 0.

Turning to `CCc1c[nH]c2ncnc(N3CC[C@](N)(CNC(=O)c4ccc(F)cc4F)C3)c12` (10 µM), the “number of time points” value came to 0.

For the compound `Nc1ncnc2c1nc(Br)n2[C@@H]1O[C@@H]2COP(=O)(O)O[C@H]2[C@H]1O` [8-Bromo-cAMP sodium salt] (10 µM), the “number of time points” value was 0.

As for `CC(C)n1c(=O)n(C)c2cnc3cc(F)c(-c4ccc(OCCCN5CCCCC5)nc4)cc3c21` (10 µM), the “number of time points” value came to 0.

On to `Cc1ccc(C)c(OCCn2cc(C(=O)O)c3ccccc32)c1` (10 µM), for which the “number of time points” value was found to be 0.

With `COCCOc1ccc2c(c1)ncn2-c1ccc2cccc(N3CCC(N)CC3)c2n1` (10 µM), the “number of time points” value turned out to be 0.

As to `CC(C)=CCC/C(C)=C/CC/C(C)=C/C=C/C(C)=C/C(=O)O` [Peretinoin] (10 µM), the “number of time points” value amounted to 0.

For `C=CC(=O)N1CC[C@@H](Oc2nc(Nc3ccc(N4CCC(N5CCN(C)CC5)CC4)cc3)c(C(N)=O)nc2CC)C1` [Naquotinib (mesylate)] (2.5 µM), the “number of time points” value was 0.

Regarding `CC(Sc1nc2c(cnn2-c2cccc(Cl)c2)c(=O)[nH]1)C(N)=O` (stereo not given) (10 µM), the “number of time points” value came to 0.

For `Cc1cc(O)c2c(c1)C(=O)c1cccc(O)c1C2=O` [Chrysophanol] (2 µM), the “number of time points” value was determined as 0.

`O=C1OC(/C=C/c2ccccc2)=NC/1=C\c1cccnc1` (10 µM): the “number of time points” value came out at 0.
